PubChem BioAssay AID1159584, Peter MacCallum Cancer Centre | 2016
Assay: 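Genes that CDH1-null MCF10A cells selectively depend on to survive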 (primary screen). System: human MCF10A breast epithelial cells, parental and CDH1-null. Knock-down reagent: siRNA against human genes. Detection: 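ATP luminescence (CellTiter-Glo) viability per line relative to mean mock wells over all plates, and the ratio of CDH1-null to parental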. Reading the numbers: CDH1-null / parental viability ratio: higher = CDH1-null cells survive relatively better than parental.
The deposit covers about 18,000 reagents; this is a part drawn at random. Further read-outs or replicates are left out here. The record does not give: the amount of reagent, the time to read-out.

gene	PubChem SID	CDH1-null / parental viability ratio
ID1	SID135620926	1.1
CLDN12	SID135624168	1.19
C1D	SID134321334	1.05
FAM219A	SID134321418	0.8
CACNG7	SID135623318	1.12
C1QTNF9B	SID152152997	1.37
RPS6KB2	SID152153683	1.07
YARS2	SID135624091	0.96
SYNPR	SID134322581	0.75
AP1B1	SID134315557	1.25
CFTR	SID152152172	1.04
CHST13	SID134313884	0.9
SLC35F3	SID152150697	0.74
PSMF1	SID135622300	0.96
KRT18P55	SID152147838	1.31
TAF1L	SID152155360	1.12
DDA1	SID152153669	0.86
SPANXD	SID135623330	1.72
SPANXD	SID135623331	1.65
MGRN1	SID134325456	1
POGLUT3	SID135622985	0.94
MGARP	SID135621986	1
SLC60A1	SID152152184	1.04
FAM193B	SID152147659	1.14
MFSD1	SID152156586	1.15
KRT6A	SID152154812	1.22
TMEM200B	SID135624699	1.05
OXTR	SID152147445	1.35
ADPRS	SID152148699	0.91
ADAR	SID135621609	0.89
GPR137B	SID135621068	0.97

As entered above:
C1QTNF9B [SID152152997], CDH1-null / parental viability ratio: 1.37
Result for SPANXD [SID135623331] under “CDH1-null / parental viability ratio”: 1.65
CACNG7 [SID135623318], CDH1-null / parental viability ratio → 1.12
Result of TMEM200B [SID135624699] in “CDH1-null / parental viability ratio”: 1.05
For “CDH1-null / parental viability ratio”, SLC60A1 [SID152152184] shows 1.04

Next entries follow.
gene	PubChem SID	CDH1-null / parental viability ratio
ERGIC2	SID152153554	0.81
PDIA2	SID152150008	1.13
DHX16	SID134315812	0.89
ZNF121	SID135625186	0.98
VLDLR	SID152153245	1.07
CHD1	SID152153699	0.92
PIGA	SID135622192	0.89
EXOSC5	SID152153157	1.03
ULBP2	SID134319915	1
PPFIA4	SID152147283	1.36
GPR37L1	SID152152377	1.36
MACROH2A1	SID134316273	1.29
METTL2A	SID135623630	1.07
FLNB	SID152151065	0.93
IRX4	SID134324497	0.86
FAM222B	SID152154439	1
UBE2QL1	SID152147639	1.09
CFDP1	SID134323844	1.12
FAM163A	SID134322405	0.98
SKIC2	SID152152918	1.06
CHD1L	SID135622725	1
PLGLB1	SID135625184	0.93
LHFPL1	SID152155585	1.02
ZNF692	SID135622963	0.77
NAMPT	SID152148465	0.93
CBLL1	SID134312192	0.79
OR2L3	SID135624683	0.89
PPP2R5B	SID134314121	1.15
ITGB3	SID134310278	0.85
LHFPL5	SID152147896	1.23
ZBED2	SID152150718	1.26
BMPR1B	SID56478926	0.95
RPS9	SID152147956	1.01
ACVR1C	SID135620908	0.82
NCALD	SID152148058	1.37
OR10H4	SID135624429	1.09
MCPH1	SID152156428	0.95
